The text below walks through data of the supplement of paper PMC11732987, “Enantioselective OTUD7B fragment discovery through chemoproteomics screening and high-throughput optimisation” (Communications Chemistry, 2025).

Sequences of proteins named here, by UniProt entry; tags and fusion partners are left off. A change or cut given only in a name is not applied to a line headed by its entry. Residues count along the entry.
UniProt Q9ULU4, 1061-1084: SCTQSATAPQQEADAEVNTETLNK
UniProt Q9H2Y7: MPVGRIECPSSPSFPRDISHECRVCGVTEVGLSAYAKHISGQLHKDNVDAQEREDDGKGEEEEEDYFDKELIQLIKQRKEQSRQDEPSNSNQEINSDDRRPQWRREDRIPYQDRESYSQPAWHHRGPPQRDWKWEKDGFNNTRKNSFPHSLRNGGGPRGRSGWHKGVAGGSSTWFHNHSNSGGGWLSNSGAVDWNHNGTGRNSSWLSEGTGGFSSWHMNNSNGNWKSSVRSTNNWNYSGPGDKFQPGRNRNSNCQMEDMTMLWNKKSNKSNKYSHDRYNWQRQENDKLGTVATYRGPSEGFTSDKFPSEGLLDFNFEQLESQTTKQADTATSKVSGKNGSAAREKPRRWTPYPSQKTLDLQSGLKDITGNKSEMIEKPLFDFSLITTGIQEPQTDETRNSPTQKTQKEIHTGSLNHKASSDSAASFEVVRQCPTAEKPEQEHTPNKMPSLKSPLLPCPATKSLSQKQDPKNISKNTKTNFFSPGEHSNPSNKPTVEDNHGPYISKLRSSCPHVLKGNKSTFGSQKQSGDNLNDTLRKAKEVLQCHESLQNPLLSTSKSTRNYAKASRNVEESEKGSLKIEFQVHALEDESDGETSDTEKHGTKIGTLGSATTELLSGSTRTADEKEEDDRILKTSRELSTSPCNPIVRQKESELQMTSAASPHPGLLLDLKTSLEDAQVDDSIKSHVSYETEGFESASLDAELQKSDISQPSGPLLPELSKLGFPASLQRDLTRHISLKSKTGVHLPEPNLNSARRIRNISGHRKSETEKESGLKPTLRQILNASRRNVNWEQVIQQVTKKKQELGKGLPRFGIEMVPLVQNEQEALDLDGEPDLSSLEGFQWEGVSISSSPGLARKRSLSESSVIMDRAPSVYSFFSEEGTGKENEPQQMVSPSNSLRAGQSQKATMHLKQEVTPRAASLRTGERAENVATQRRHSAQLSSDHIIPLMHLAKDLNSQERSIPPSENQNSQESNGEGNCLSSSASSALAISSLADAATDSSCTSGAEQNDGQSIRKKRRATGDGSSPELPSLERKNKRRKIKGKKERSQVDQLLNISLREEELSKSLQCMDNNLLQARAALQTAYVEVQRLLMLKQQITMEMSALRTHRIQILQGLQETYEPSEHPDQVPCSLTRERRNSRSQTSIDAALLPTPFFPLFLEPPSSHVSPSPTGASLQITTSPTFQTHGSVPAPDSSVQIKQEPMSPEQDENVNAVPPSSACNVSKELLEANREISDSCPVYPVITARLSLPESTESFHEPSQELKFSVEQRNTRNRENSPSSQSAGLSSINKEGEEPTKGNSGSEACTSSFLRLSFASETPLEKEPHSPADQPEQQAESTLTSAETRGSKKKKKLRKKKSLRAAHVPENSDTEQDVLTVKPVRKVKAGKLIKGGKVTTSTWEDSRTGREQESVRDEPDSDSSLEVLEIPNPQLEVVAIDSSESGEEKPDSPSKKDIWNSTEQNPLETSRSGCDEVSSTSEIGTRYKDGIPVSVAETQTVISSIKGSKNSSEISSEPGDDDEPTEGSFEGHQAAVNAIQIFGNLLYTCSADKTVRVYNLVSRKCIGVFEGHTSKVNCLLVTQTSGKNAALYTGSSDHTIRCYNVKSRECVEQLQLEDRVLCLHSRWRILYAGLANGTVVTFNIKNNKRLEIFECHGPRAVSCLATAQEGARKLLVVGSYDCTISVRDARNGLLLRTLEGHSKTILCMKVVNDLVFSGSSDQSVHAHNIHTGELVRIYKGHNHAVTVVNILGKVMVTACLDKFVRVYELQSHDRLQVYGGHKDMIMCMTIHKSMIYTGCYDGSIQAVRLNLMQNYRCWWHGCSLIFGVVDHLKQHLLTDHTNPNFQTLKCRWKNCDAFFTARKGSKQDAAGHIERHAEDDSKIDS
UniProt Q9H4I2: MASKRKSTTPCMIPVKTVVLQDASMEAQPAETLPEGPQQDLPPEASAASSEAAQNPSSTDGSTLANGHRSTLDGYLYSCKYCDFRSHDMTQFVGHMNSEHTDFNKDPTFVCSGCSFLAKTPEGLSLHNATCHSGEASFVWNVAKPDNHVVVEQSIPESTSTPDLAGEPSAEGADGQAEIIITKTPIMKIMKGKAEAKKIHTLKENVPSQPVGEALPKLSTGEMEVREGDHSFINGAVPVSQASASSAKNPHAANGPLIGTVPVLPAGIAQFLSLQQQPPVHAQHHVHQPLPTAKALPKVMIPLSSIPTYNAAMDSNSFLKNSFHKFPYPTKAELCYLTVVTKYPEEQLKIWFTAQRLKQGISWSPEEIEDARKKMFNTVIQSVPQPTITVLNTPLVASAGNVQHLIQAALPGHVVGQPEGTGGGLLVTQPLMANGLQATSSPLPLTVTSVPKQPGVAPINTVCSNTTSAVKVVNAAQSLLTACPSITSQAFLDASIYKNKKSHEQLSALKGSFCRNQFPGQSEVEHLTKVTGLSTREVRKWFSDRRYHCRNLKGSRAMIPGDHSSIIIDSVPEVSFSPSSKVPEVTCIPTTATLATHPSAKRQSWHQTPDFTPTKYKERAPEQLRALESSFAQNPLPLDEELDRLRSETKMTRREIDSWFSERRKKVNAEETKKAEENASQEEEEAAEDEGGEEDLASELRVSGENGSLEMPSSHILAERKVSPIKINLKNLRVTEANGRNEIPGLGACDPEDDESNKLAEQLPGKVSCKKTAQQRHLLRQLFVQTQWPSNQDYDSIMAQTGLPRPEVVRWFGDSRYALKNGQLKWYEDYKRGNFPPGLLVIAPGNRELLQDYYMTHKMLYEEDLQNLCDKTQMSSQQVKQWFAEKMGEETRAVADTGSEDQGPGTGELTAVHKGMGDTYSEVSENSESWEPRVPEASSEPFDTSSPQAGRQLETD
UniProt O76080: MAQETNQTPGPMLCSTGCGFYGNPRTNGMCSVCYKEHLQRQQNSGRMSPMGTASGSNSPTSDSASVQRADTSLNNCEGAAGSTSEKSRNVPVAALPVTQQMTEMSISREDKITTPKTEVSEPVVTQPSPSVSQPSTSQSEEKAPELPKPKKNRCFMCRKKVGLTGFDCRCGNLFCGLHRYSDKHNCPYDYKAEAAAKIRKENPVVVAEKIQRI
UniProt Q9H4Z2: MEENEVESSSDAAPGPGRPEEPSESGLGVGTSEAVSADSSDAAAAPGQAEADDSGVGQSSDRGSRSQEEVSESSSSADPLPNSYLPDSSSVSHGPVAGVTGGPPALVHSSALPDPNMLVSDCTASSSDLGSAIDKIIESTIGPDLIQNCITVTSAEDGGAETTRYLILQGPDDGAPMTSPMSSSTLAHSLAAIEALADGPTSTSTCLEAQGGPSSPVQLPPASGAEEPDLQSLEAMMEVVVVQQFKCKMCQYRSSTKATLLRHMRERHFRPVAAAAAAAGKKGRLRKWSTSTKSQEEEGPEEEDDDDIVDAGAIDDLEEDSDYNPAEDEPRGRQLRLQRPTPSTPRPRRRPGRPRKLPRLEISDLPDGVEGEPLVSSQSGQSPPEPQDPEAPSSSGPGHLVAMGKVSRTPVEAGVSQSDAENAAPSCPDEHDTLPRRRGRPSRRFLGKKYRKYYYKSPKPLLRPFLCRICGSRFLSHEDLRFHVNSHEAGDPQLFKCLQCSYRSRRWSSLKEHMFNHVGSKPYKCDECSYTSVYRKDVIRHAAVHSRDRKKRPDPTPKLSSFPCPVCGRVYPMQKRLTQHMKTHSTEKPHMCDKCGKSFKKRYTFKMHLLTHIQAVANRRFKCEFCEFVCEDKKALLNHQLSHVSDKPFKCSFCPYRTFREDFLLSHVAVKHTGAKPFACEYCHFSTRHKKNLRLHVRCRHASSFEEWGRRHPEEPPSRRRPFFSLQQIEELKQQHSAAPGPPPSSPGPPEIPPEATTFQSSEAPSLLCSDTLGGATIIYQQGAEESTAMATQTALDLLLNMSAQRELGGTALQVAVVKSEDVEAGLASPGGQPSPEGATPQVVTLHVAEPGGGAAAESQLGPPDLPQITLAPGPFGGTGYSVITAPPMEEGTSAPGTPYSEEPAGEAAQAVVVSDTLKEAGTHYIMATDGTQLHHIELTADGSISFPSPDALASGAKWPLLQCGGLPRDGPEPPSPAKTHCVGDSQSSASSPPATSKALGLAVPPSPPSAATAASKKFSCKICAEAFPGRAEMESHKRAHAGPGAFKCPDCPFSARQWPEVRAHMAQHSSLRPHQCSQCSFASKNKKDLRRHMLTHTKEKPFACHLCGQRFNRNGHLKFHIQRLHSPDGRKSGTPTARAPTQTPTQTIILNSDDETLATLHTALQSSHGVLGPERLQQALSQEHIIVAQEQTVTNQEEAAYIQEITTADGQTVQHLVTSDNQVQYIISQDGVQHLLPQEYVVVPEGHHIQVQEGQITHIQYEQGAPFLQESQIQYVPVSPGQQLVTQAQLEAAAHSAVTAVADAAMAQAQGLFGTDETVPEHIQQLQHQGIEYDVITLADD
UniProt Q16600, 120-144: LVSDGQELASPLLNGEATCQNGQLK
UniProt Q6NZY4, 590-609: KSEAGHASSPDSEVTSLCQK
UniProt O95159: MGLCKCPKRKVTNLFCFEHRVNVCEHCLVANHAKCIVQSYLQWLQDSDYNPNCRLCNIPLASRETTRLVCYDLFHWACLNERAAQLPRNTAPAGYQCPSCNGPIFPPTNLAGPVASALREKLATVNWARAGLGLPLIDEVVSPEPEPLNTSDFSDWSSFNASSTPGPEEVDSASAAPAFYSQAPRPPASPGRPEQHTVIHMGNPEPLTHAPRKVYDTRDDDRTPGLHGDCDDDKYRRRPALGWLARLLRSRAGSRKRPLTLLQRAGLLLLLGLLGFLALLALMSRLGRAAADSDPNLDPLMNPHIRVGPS
UniProt Q96KM6: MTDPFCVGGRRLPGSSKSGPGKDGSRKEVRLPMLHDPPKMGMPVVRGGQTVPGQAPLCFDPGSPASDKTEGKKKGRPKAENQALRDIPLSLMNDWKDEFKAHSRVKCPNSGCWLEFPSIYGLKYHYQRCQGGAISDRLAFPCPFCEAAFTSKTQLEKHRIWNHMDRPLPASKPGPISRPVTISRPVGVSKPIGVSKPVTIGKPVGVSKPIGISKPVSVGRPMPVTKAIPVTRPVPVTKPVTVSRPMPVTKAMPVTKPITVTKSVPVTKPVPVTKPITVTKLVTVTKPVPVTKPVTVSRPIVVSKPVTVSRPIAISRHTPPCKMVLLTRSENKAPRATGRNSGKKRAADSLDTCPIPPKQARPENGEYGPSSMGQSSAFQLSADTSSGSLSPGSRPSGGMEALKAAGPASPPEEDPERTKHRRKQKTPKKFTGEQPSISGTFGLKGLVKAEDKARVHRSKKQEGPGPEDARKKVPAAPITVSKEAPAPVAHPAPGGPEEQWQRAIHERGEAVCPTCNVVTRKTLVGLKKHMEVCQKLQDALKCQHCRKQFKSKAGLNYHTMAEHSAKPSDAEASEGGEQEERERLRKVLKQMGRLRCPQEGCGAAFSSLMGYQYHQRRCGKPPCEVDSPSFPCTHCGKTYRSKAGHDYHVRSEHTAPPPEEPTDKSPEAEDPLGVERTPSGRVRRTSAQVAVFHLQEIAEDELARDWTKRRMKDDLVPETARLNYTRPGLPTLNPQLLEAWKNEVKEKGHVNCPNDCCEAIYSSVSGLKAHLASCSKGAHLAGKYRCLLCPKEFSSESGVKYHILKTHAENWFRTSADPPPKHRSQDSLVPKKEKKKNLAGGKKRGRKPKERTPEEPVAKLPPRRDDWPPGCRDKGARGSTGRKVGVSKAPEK
UniProt Q6FIF0: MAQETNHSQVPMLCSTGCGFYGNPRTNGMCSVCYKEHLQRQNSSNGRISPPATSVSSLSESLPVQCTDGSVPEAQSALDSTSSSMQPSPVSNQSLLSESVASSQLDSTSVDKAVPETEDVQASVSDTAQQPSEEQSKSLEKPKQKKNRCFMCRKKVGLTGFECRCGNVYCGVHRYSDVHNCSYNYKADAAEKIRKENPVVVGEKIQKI
UniProt Q9H582, 193-213: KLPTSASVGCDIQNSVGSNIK
UniProt Q15942: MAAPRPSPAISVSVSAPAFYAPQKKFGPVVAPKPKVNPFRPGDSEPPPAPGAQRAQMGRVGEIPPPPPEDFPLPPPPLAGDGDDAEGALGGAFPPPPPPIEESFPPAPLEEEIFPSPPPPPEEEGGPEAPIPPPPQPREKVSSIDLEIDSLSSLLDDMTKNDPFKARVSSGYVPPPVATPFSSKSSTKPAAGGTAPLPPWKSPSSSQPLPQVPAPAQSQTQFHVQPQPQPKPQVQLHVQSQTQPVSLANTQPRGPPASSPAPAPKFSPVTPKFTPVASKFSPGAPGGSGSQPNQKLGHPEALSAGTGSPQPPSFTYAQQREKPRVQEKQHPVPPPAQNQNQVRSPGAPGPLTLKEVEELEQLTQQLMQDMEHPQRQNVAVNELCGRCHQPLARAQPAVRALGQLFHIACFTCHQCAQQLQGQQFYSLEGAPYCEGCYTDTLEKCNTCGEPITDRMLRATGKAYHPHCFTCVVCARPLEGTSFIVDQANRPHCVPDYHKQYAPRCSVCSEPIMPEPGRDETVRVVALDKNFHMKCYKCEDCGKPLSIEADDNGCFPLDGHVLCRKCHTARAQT
UniProt Q9UGR2, 142-162: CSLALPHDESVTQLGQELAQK

Some of the results follow. The data scatter; read single values as rough.

Compound in the first experiment: ClCC(=O)N[C@@H]1CCCc2ccccc12
Put plainly: log2 mean competition ratio of IA-DTB cysteine labelling (DMSO/compound) (log2 ratio); higher = stronger cysteine engagement by compound. To be noted: 50 µM; treatment time: 4 h; cell line lysate: HEK293T. As to the method:
(§1)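 IA-DTB competitive cysteine chemoproteomics in HEK293T RIPA lysate. Lysates were treated with compound 29 or 30 at 50 or 200 µM for 4 h, then IA-DTB (500 µM, 1 h), trypsin-digested, NeutrAvidin-enriched and analysed by diaPASEF. Competition ratio = intensity DMSO / intensity compound (n=4 treated, n=64 DMSO); binding: mean log2 CR ≥ 1 and p ≤ 0.05 plus QC filters. Target is the cysteine site.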
As to ZNF24 C233 (UniProt P17028), the “log2 mean competition ratio” value worked out at 0.145.
As to ZNF280C C734 (UniProt Q8ND82), the “log2 mean competition ratio” value is -0.0675.
Consider ZMYND8 C1062 (UniProt Q9ULU4), for which the “log2 mean competition ratio” value came out at 0.0887.
Still for that read-out and setting: the same measure for ZDHHC18 C156 (UniProt Q9NUE0): -0.018.
Still for that read-out and setting: then ZNF106 C457 (UniProt Q9H2Y7), with 0.061; and ZNF704 C55, with 0.0261; and ZC3HC1 C149 (UniProt Q86WB0), with 0.299.
On the same count and under the same terms, then ZHX3 C11 (UniProt Q9H4I2), with 0.0535; and ZNF302 C274, with 0.115.
With ZFAND5 C168 (UniProt O76080), the “log2 mean competition ratio” value is 0.0286.
Still for that read-out and setting: the same measure for ZNF335 C982 (UniProt Q9H4Z2): 0.113; for ZNF239 C138 (UniProt Q16600): -0.393; for ZEB2 C140 (UniProt O60315): -0.0652.
For the target ZCCHC8 C607 (UniProt Q6NZY4), the “log2 mean competition ratio” value was -0.0675.
With ZNF791 C311, the “log2 mean competition ratio” value was -0.0879.
Same read-out and setting: the same measure for ZSWIM9 C403: -0.112; for ZFPM2 C788 (UniProt Q8WW38): -0.156; for ZNF24 C189 (UniProt P17028): -0.0729.
Consider ZC3HAV1L C182 (UniProt Q96H79), for which the “log2 mean competition ratio” value is 0.115.
For ZNF318 C140 (UniProt Q5VUA4), the “log2 mean competition ratio” value is -0.0326.
As for ZFC3H1 C1816 (UniProt O60293), the “log2 mean competition ratio” value is -0.16.
The same measure, in the same setting: then ZNF618 C619, with -0.461; and ZFPL1 C230 (UniProt O95159), with -0.122; and ZNF512B C129 (UniProt Q96KM6), with -0.245.
The same measure, in the same setting: the same measure for ZFAND6 C181 (UniProt Q6FIF0): 0.445.
Same read-out and setting: the same measure for ZNF644 C202 (UniProt Q9H582): 0.369; for ZNF516 C114 (UniProt Q92618): -0.149.
Consider ZNF239 C167 (UniProt Q16600), for which the “log2 mean competition ratio” value was -0.0907.
For ZNF239 C112 (UniProt Q16600), the “log2 mean competition ratio” value is 0.26.
Still for that read-out and setting: then ZYX C387 (UniProt Q15942), with 0.301.
For ZNF195 C207, the “log2 mean competition ratio” value was 0.0171.
Regarding ZDBF2 C2333, the “log2 mean competition ratio” value came to 0.1.
The same measure, in the same setting: the same measure for ZC3H7B C142 (UniProt Q9UGR2): 0.0931.

The same experiment, now with this note: 200 µM; treatment time: 4 h; cell line lysate: HEK293T.
In the case of ZFHX4 C964 (UniProt Q86UP3), the “log2 mean competition ratio” value stood at 0.0702.
Turning to ZNF24 C233 (UniProt P17028), the “log2 mean competition ratio” value amounted to 0.0684.
As to ZNF280C C734 (UniProt Q8ND82), the “log2 mean competition ratio” value was 0.0832.
In the case of ZMYND8 C1062 (UniProt Q9ULU4), the “log2 mean competition ratio” value was -0.283.
ZDHHC18 C156 (UniProt Q9NUE0): the “log2 mean competition ratio” value was found to be 0.132.
Consider ZNF106 C457 (UniProt Q9H2Y7), for which the “log2 mean competition ratio” value was -0.0697.
For the target ZNF704 C55, the “log2 mean competition ratio” value was -0.042.
Take ZC3HC1 C149 (UniProt Q86WB0): the “log2 mean competition ratio” value is -0.297.
Still for that read-out and setting: the same measure for ZHX3 C11 (UniProt Q9H4I2): -0.556; for ZNF302 C274: 0.193; for ZFAND5 C168 (UniProt O76080): 0.0731.
Still for that read-out and setting: the same measure for ZNF335 C982 (UniProt Q9H4Z2): 0.0156.
Take ZEB2 C140 (UniProt O60315): the “log2 mean competition ratio” value was -0.284.
On to ZCCHC8 C607 (UniProt Q6NZY4), for which the “log2 mean competition ratio” value was determined as 0.00752.
Still for that read-out and setting: then ZSWIM9 C403, with 0.096; and ZNF24 C189 (UniProt P17028), with 0.0428; and ZC3HAV1L C182 (UniProt Q96H79), with -0.402.
For ZNF318 C140 (UniProt Q5VUA4), the “log2 mean competition ratio” value is 0.129.
ZFC3H1 C1816 (UniProt O60293): the “log2 mean competition ratio” value was -0.224.
Regarding ZNF618 C619, the “log2 mean competition ratio” value is -0.0521.
With ZFPL1 C230 (UniProt O95159), the “log2 mean competition ratio” value was -0.000237.
Consider ZNF446 C33, for which the “log2 mean competition ratio” value was -0.227.
The same measure, in the same setting: then ZNF391 C343 (UniProt Q9UJN7), with 0.664; and ZNF512B C129 (UniProt Q96KM6), with -0.0977; and ZFAND6 C181 (UniProt Q6FIF0), with 0.133.
On the same count and under the same terms, the same measure for ZNF644 C202 (UniProt Q9H582): 0.586.
As to ZNF516 C114 (UniProt Q92618), the “log2 mean competition ratio” value amounted to 0.0372.
Still for that read-out and setting: the same measure for ZNF239 C167 (UniProt Q16600): -0.116; for ZNF239 C112 (UniProt Q16600): -0.0804.
Same read-out and setting: then ZYX C387 (UniProt Q15942), with -0.405; and ZNF195 C207, with -0.1; and ZDBF2 C2333, with 0.507.
As to ZC3H7B C142 (UniProt Q9UGR2), the “log2 mean competition ratio” value is 0.457.

Compound in a further experiment: ClCC(=O)N[C@H]1CCCc2ccccc12
The description is as above. To be noted: 50 µM; treatment time: 4 h; cell line lysate: HEK293T. As to the method: as §1
Regarding ZFHX4 C964 (UniProt Q86UP3), the “log2 mean competition ratio” value was -0.256.
On to ZNF24 C233 (UniProt P17028), for which the “log2 mean competition ratio” value was determined as 0.00872.
Regarding ZNF280C C734 (UniProt Q8ND82), the “log2 mean competition ratio” value was -0.143.
Still for that read-out and setting: the same measure for ZMYND8 C1062 (UniProt Q9ULU4): 0.13; for ZDHHC18 C156 (UniProt Q9NUE0): -0.504.
In the case of ZNF106 C457 (UniProt Q9H2Y7), the “log2 mean competition ratio” value came to 0.122.
On the same count and under the same terms, the same measure for ZNF704 C55: -0.157.
Take ZC3HC1 C149 (UniProt Q86WB0): the “log2 mean competition ratio” value came out at 0.386.
For ZHX3 C11 (UniProt Q9H4I2), the “log2 mean competition ratio” value is 0.76.
With ZNF302 C274, the “log2 mean competition ratio” value is 0.418.
Regarding ZFAND5 C168 (UniProt O76080), the “log2 mean competition ratio” value is 0.125.
Take ZNF335 C982 (UniProt Q9H4Z2): the “log2 mean competition ratio” value came to 0.0519.
For ZNF239 C138 (UniProt Q16600), the “log2 mean competition ratio” value is -0.587.
Turning to ZEB2 C140 (UniProt O60315), the “log2 mean competition ratio” value is -0.164.
On the same count and under the same terms, then ZCCHC8 C607 (UniProt Q6NZY4), with -0.228.
Regarding ZNF791 C311, the “log2 mean competition ratio” value is -0.266.
The same measure, in the same setting: then ZSWIM9 C403, with 0.044.
As for ZFPM2 C788 (UniProt Q8WW38), the “log2 mean competition ratio” value stood at 0.122.
Same read-out and setting: the same measure for ZNF24 C189 (UniProt P17028): -0.169.
Consider ZNF709 C375, for which the “log2 mean competition ratio” value is -0.247.
On the same count and under the same terms, the same measure for ZC3HAV1L C182 (UniProt Q96H79): 0.125.
Same read-out and setting: the same measure for ZNF318 C140 (UniProt Q5VUA4): -0.242; for ZFC3H1 C1816 (UniProt O60293): -0.187.
Still for that read-out and setting: then ZNF618 C619, with -0.246.
As for ZFPL1 C230 (UniProt O95159), the “log2 mean competition ratio” value is -0.476.
Still for that read-out and setting: then ZNF446 C33, with -0.247; and ZNF391 C343 (UniProt Q9UJN7), with 0.837.
The same measure, in the same setting: then ZNF512B C129 (UniProt Q96KM6), with 0.0952.
Still for that read-out and setting: the same measure for ZFAND6 C181 (UniProt Q6FIF0): 0.278; for ZNF644 C202 (UniProt Q9H582): -0.269; for ZNF516 C114 (UniProt Q92618): -0.279.
ZNF239 C167 (UniProt Q16600): the “log2 mean competition ratio” value stood at 0.0271.
In the case of ZNF239 C112 (UniProt Q16600), the “log2 mean competition ratio” value is -0.0552.
On the same count and under the same terms, the same measure for ZYX C387 (UniProt Q15942): 0.414; for ZNF195 C207: -0.166.
Regarding ZDBF2 C2333, the “log2 mean competition ratio” value was determined as 0.205.
ZC3H7B C142 (UniProt Q9UGR2): the “log2 mean competition ratio” value was -0.0603.
